Results are given in words; binding and its absence hold for the method and conditions named. A result given as binding can be weak or reduced; the word gives no strength.
Each binder was assayed against HLA-A*02:01 (human) (assay: UV peptide-exchange ELISA, exchange yield grade).

Binder | binding
AIIKEIQTV [… (SEQ ID NO: 154)] | binds
AQLEGKLVSI [… (SEQ ID NO: 111)] | binds
SLADLSLLL [… (SEQ ID NO: 16)] | binds
ALLNNVIEV [… (SEQ ID NO: 132)] | binds
TLLEGISRA [… (SEQ ID NO: 117)] | binds
LLDAAHASI [… (SEQ ID NO: 142)] | binds
LLWDAPAKC [… (SEQ ID NO: 136)] | binds
MLWESIMRV [… (SEQ ID NO: 143)] | binds
YLILSSHQL [… (SEQ ID NO: 148)] | binds
FLDSQITTV [… (SEQ ID NO: 140)] | binds
ILQDGQFLV [… (SEQ ID NO: 157)] | binds
ALLSSVAEA [… (SEQ ID NO: 116)] | binds
YLDPLWHQL [… (SEQ ID NO: 158)] | binds
QLYGSAITL [… (SEQ ID NO: 130)] | binds
GLLPSAESIKL [… (SEQ ID NO: 17)] | binds
VLLDMVHSL [… (SEQ ID NO: 150)] | binds
NIDINNNEL [… (SEQ ID NO: 141)] | binds
QLREAFEQL [… (SEQ ID NO: 126)] | binds
ALYVQAPTV [… (SEQ ID NO: 121)] | binds
RLLDPKTIFL [… (SEQ ID NO: 12)] | binds
KMASKVTQV [… (SEQ ID NO: 129)] | binds
KTASINQNV [… (SEQ ID NO: 18)] | binds
LLFPSDVQTL [… (SEQ ID NO: 114)] | binds
ILHGEVNKV [… (SEQ ID NO: 115)] | binds
TLDSYLKAV [… (SEQ ID NO: 155)] | binds

Binder | binding
KLIYKDLVSV [… (SEQ ID NO: 137)] | binds
SLYKSFLQL [… (SEQ ID NO: 134)] | binds
VVAAHLAGA [… (SEQ ID NO: 146)] | binds
FLDGRPLTL [… (SEQ ID NO: 133)] | binds
ILAQDVAQL [… (SEQ ID NO: 112)] | binds
FLISQTPLL [… (SEQ ID NO: 144)] | binds
NMADGQLHQV [… (SEQ ID NO: 149)] | binds
KVFELDLVTL [… (SEQ ID NO: 19)] | binds
SLIEESEEL [… (SEQ ID NO: 119)] | binds
GIINKLVTV [… (SEQ ID NO: 138)] | binds
FLFLKEVKV [… (SEQ ID NO: 113)] | binds
SILTNISEV [… (SEQ ID NO: 128)] | binds
AALEVLAEV [… (SEQ ID NO: 125)] | binds
QTAPEEAFIKL [… (SEQ ID NO: 123)] | binds
ALLLRLFTI [… (SEQ ID NO: 124)] | binds
SLYPHFTLL [… (SEQ ID NO: 131)] | binds
DISKRIQSL [… (SEQ ID NO: 151)] | binds
IILENIQSL [… (SEQ ID NO: 139)] | binds
QIQGQVSEV [… (SEQ ID NO: 110)] | binds
ALEEKLENV [… (SEQ ID NO: 145)] | binds
YTFSGDVQL [… (SEQ ID NO: 14)] | binds
RLHDENILL [… (SEQ ID NO: 13)] | binds
KLQEKIQEL [… (SEQ ID NO: 1)] | binds
GLLSALENV [… (SEQ ID NO: 147)] | binds
SIIDTELKV [… (SEQ ID NO: 122)] | binds

Now from value to binder:

binding | Binder
binds | TLQEWLTEV [… (SEQ ID NO: 160)]
binds | TLGEIIKGV [… (SEQ ID NO: 179)]
binds | RLIDIYKNV [… (SEQ ID NO: 173)]
binds | RLYEEEIRI [… (SEQ ID NO: 180)]
binds | QLGPVPVTI [… (SEQ ID NO: 159)]
binds | LLWAPTAQA [… (SEQ ID NO: 181)]
binds | LVVDEGSLVSV [… (SEQ ID NO: 167)]
binds | ALADLSVAV [… (SEQ ID NO: 169)]
binds | MLIIRVPSV [… (SEQ ID NO: 164)]
binds | VIFEGEPMYL [… (SEQ ID NO: 168)]
binds | VQSGLRILL [… (SEQ ID NO: 176)]
binds | SLLDLVQSL [… (SEQ ID NO: 175)]
binds | LLLLDVPTA [… (SEQ ID NO: 171)]
binds | LLGDSSFFL [… (SEQ ID NO: 166)]
binds | SLVSWQLLL [… (SEQ ID NO: 178)]
binds | ALYSGDLHAA [… (SEQ ID NO: 174)]
binds | TLYQGLPAEV [… (SEQ ID NO: 185)]
binds | ALINVLNAL [… (SEQ ID NO: 177)]
binds | GLLGNLLTSL [… (SEQ ID NO: 162)]
binds | GLEERLYTA [… (SEQ ID NO: 163)]
binds | FIAAVVEKV [… (SEQ ID NO: 170)]
binds | ALDSTIAHL [… (SEQ ID NO: 184)]
binds | SLLDYEVSI [… (SEQ ID NO: 165)]
binds | NLLDENVCL [… (SEQ ID NO: 161)]
binds | GLQDGFQITV [… (SEQ ID NO: 182)]
binds | ALSYILPYL [… (SEQ ID NO: 183)]
binds | SILKEDPFL [… (SEQ ID NO: 187)]

From US20230203127A1
